Results: PubChem BioAssay AID652054 (National Center for Advancing Translational Sciences (NCATS), 2013)
Out of some 360,000 compounds screened, about 9,100 (2.5%) were called active. Inconclusive means that the source gave no clear call. Such entries were picked first, then a sample of the others. Rule as the data show it: active = max response below about -50%; inconclusive = no clear call, values can overlap the other calls; inactive = above that.

Chains of the proteins cited; added tags and fusions are not shown.
UniProt P35462, whole entry, looked up: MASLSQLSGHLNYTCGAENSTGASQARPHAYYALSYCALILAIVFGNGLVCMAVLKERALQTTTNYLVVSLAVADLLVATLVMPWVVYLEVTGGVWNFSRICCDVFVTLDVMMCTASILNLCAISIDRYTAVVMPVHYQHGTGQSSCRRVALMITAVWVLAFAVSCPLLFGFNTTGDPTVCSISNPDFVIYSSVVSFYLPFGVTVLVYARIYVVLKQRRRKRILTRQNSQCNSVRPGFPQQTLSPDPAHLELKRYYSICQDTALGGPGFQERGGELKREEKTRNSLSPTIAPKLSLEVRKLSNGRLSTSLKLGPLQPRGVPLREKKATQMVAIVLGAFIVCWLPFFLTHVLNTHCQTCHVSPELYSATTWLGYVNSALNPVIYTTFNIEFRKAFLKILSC

Target: D(3) dopamine receptor (Homo sapiens) (UniProt P35462)
Assay: qHTS of D3 Dopamine Receptor Antagonist: qHTS
Conditions: D3R cells, DiscoveRx beta-arrestin luminescence, antagonist mode; active compounds read low
In short: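 Cells plated overnight at 1500 cells/well, then exposed to library compounds with dopamine controls for 90 minutes at 37 degrees C. DiscoveRx reagent added for 30–60 minutes at room temperature; luminescence read, quantitative HTS format.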
% is scaled to controls: 0 for no effect and ±100 for the full control effect.

Max response, negative = inhibition, inactive:
CC(=O)Nc1ccc(CNc2nc3cc(-c4cccc(C(F)(F)F)c4)sc3c(=O)n2C)cc1 -9.55%
COc1ccc(Cn2cc(CN3CC(N4CCN(CCN(C)C)CC4)CS3(=O)=O)nn2)cc1 (stereo not given) 2.26%
CCOC(=O)C1=C(COC(=O)/C=C/c2cccc(F)c2)NC(=O)NC1C (stereo not given) 13.3%
CC(=O)Nc1ccc2nc(CN3CCC(CO)(CCc4ccccc4)CC3)ccc2c1 11.3%
CCN(CC)C(=O)C1=C(C)N(Cc2ccc(C(C)(C)C)cc2)C(=O)C(CC(=O)NCc2cccs2)C1 (stereo not given) -24.6%
CC1(c2nnc(-c3ccccc3)o2)CC(c2ccc(F)cc2)=NO1 (stereo not given) 0.366%
COc1ccc(OC)c(-c2cc(C(=O)Nc3c(C)nn(Cc4ccc(Cl)cc4)c3C)no2)c1 16.4%
CN1CCN(S(=O)(=O)c2ccc(NC(=O)c3ccccc3Cl)cc2)CC1 4.17%
O=C(CCNC(=O)C1CCN(S(=O)(=O)c2ccccc2)CC1)NCc1cccnc1 0.715%
COc1ccc(N(CC(=O)Nc2cccc(N(C)S(C)(=O)=O)c2)S(=O)(=O)c2ccccc2)cc1Cl 7.55%
Cc1cc(C)c(C)c(S(=O)(=O)NCC(=O)Nc2ccc(F)cc2)c1C 3.55%
CC(=O)c1ccc(N2CCN(S(=O)(=O)c3csc(C(N)=O)c3)CC2)cc1 7.9%
Cc1ccc(Cn2ncc3c(N4CCCC4)ncnc32)cc1 13.6%
Cc1ccccc1CSCC(=O)c1c(N)n(CC(C)C)c(=O)n(C)c1=O -27.5%
COc1ccc(NC(=O)CSc2nnc(CCC(=O)O)c(=O)n2N)cc1 12.1%
COC(=O)[C@H](CC(C)C)NC(=O)/C=C/[C@H]1O[C@@H](n2ccc(=O)[nH]c2=O)[C@H](O)[C@@H]1O 11.3%
NC(=O)c1ccccc1NS(=O)(=O)Cc1ccc(Cl)cc1 14.2%
CCc1ccccc1NS(=O)(=O)c1ccc(OC)c2ncccc12 80.1%
CCc1nc2c(OCCc3cccc(OC)c3)cccn2c1N(C=O)Cc1ccc(OC)cc1 -4.33%
CCOP(=O)(OCC)C(NC(=O)Nc1ccccc1)C(N)=O (stereo not given) 6.9%
CC(C)CCC(C(=O)O)C(C)CC(=O)NC1CCCCC1 (stereo not given) 19.9%
O=C(NCCCCc1ccccc1)c1cccc(NC(=O)C2CC2)c1 3.6%
CSc1ccccc1NC(=O)CN1C(=O)C2CC=CCC2C1=O (stereo not given) 23.7%
Cc1ccc(CN2CCN(/N=C\C(Br)=C\c3ccccc3)CC2)cc1 -22.1%
CC(C)(C)c1nn(-c2ccccc2)c2nc(Cl)c(C=O)cc12 29.3%

Max response, negative = inhibition, inconclusive:
CCOc1cc(CNCCc2c[nH]c3ccccc23)cc(Cl)c1OCC(N)=O -37.2%
O=C(NC1CCCCC1)c1sc(=S)n2c1[nH]c(=O)c1ccccc12 -40.5%
O=C(CN1CCCN(Cc2ccc(F)cc2Cl)C1=O)NC1CCCCCCC1 -39.4%
Cc1ccc(C)c(NC(=S)NC(NC(=O)Cc2ccccc2)C(Cl)(Cl)Cl)c1 (stereo not given) -42.2%
COc1ccc(NC(=O)c2ccccn2)cc1S(=O)(=O)N1CCOCC1 -35.1%
CCOC(=O)C1=C(C)N=c2sc(=C(C)C)c(=O)n2C1c1ccc(N(C)C)cc1 (stereo not given) -31.3%
Cc1cc(C2C(=O)c3ccccc3C2=O)c(C)c(C)c1C -44%
COc1ccccc1/C=C1\SC(=S)N(CCC(=O)NCCCn2ccnc2)C1=O -37.5%
O=C(COC(=O)/C=C/c1ccc(F)cc1)NC1CCS(=O)(=O)C1 (stereo not given) -30.6%
Cc1ccc(S(=O)(=O)Nc2ccccc2CNC2CCCCC2)cc1 -31.3%
CN(C)c1ccc(C(CNC(=O)c2cccs2)N(C)C)cc1 (stereo not given) -46.5%
COc1cc(/C=N/NC(N)=S)ccc1OC(=O)c1ccc(C)cc1 -37.9%
CN1C(=O)/C(=C/c2cccc([N+](=O)[O-])c2)C(=O)N1c1ccccc1 -36.1%
COc1cc(C(=O)N(Cc2cccnc2)Cc2cc3cc4c(cc3[nH]c2=O)OCCO4)cc(OC)c1OC -30.7%
CCOC(=O)N1CCN(C(=O)c2ccc3c(=O)n(Cc4ccc(OC)cc4)c(=S)[nH]c3c2)CC1 -47%
Cc1ccnn1CC(=O)N/N=C/c1c[nH]c2ccccc12 -34.1%
CCCN(CCC)C1CC(=O)N(Cc2ccccc2)C1=O (stereo not given) -45.7%
CC1(C(=O)OCC(=O)NNC(=O)COc2ccc(Cl)cc2)CC1(Cl)Cl (stereo not given) -39.4%
CCCC(=O)NCCc1ccc(S(N)(=O)=O)cc1 -34.4%
O=C(Nc1ccc2c(c1)OCO2)[C@@H]1CCCN1S(=O)(=O)c1cccc2cccnc12 -32.1%
Cc1cccc(NC(=O)CSc2nnc(Cn3cnc4ccccc43)o2)c1 -34.9%
COc1ccc(CN(C)C(=O)c2ccc(NS(=O)(=O)c3ccc(C)c([N+](=O)[O-])c3)cc2)c(OC)c1OC -39.3%
O=C(CN1CCC(n2nnc3cc(F)ccc32)CC1)N1CCc2ccccc2C1 -48.2%
CCOc1ccc(NC2OCC(O)C(O)C2O)c([N+](=O)[O-])c1 (stereo not given) -34.1%
COn1c(=O)c(-c2cccs2)[n+]([O-])c2ccccc21 -31.8%
Cc1cc(=O)oc(C)c1C(=O)NCCCN1CCN(c2ccccc2F)CC1 -34.1%
CC(=O)Nc1c(O)nc(SCC(=O)Nc2cccc(C)c2)[nH]c1=O -30.7%
CC(C)(C)C(=O)Nc1cc(C(F)(F)F)ccc1-n1ccnc1 -41.3%
O=C(CCN1CCN(C(c2ccccc2)c2ccccc2)CC1)N/N=C/c1ccc(O)cc1O -44.4%
Cn1c(SCC(=O)N/N=C/c2cc([N+](=O)[O-])ccc2O)nnc1-c1ccccc1 -39.4%
CN1CCN(C(=O)c2ccc(-c3cc4nc(NCc5cccnc5)n(C)c(=O)c4s3)cc2)CC1 -49.1%
Cc1sc2nc(CN3CCCC3)nc(N3CCN(S(=O)(=O)c4cccs4)CC3)c2c1C -34.6%
CNC(=S)NNC(=O)c1c(C)nc2cc(C)ccn12 -33.3%
Cc1c2cc[n+](CCN3CCCCC3)cc2c(C)c2c1[nH]c1ccc(O)cc12 -43.6%
CN(c1ccccc1)S(=O)(=O)c1ccc(C(=O)Nc2cccc(S(=O)(=O)N3CCOCC3)c2)cc1 -30.6%
CCOC(=O)C(C)N1c2cccc3cccc(c23)S1(=O)=O (stereo not given) -40.8%
CCC(C)N(CCNC(=O)CC1Oc2ccccc2NC1=O)C1CCCCC1 (stereo not given) -36.8%
O=C(CN1CCN(c2cccc(Cl)c2)CC1)NCc1ccccc1 -41%
CCCNc1nc(NCC)nc(OC)n1 -34.5%
O=C(NCC1CCS(=O)(=O)C1)Oc1ccccc1 (stereo not given) -32.2%
O=C(NCc1ccccc1)c1ccc2c(=O)n(CC3CCCO3)c(=S)[nH]c2c1 (stereo not given) -49.6%
COc1ccc(OC)c(/C=C2\Oc3cc(OCC(=O)N4CCC[C@H]4C(=O)O)ccc3C2=O)c1 -41.1%
COc1ccc(Br)cc1S(=O)(=O)N(CC(=O)N1CCN(C)CC1)c1ccccc1 -35.3%
Cc1sc2c(=O)n3c(nc2c1C(=O)NCCCN1CCOCC1)CCCCC3 -36.1%
CCNC(=S)N(CCc1c(C)[nH]c2ccc(C)cc12)Cc1ccco1 -49.2%
Cc1nc2oc(C(=O)c3ccc(Br)cc3)c(N)c2c2c1COC(C)(C)C2 -42.9%
CCOc1ccc(C(=O)CN2CCN(S(=O)(=O)c3ccc(F)cc3)CC2)cc1 -35.2%
CCOC(=O)c1[nH]c2ccc(F)cc2c1NC(=O)CN1CCN(C/C=C/c2ccccc2)CC1 -41.5%
COc1cccc(OC)c1CNC(=O)CCSCc1ccccc1F -30.8%

Max response, negative = inhibition, active:
CCN1c2ccccc2-c2nc3ccccc3n2C1c1ccco1 (stereo not given) -50.3%
CCOC(=O)[C@]12CCC=C1N(Cc1ccccc1)C(=O)[C@H](CC(=O)NCC13CC4CC(CC(C4)C1)C3)C2 -52.8%
COc1ccccc1N1CCN(C(c2ccccn2)c2nnnn2C2CCCCC2)CC1 (stereo not given) -66%
CN(C)c1ccc(/C=C(/C#N)C(=O)NCc2ccccc2)o1 -88%
O=C1CC(c2ccco2)CC(O)=C1C=Nc1ccccc1-c1ccccc1 (stereo not given) -105%
COc1ccc(/C=N/c2oc(-c3ccccc3)cc2C#N)cc1OC -52.4%
NC(c1csc(Nc2ccc(C(F)(F)F)cn2)n1)C1CCCCC1 (stereo not given) -52.6%
COc1ccc(/C=C/c2ccccc2)cc1[C@H]1[C@@H]2C=CCC[C@@]2(C)C(=O)N1Cc1ccccc1 -66.5%
CCOC(=O)Cn1c(=O)oc2cc(S(=O)(=O)Nc3cccc(C)c3)ccc21 -58.8%
CC(=O)Oc1ccc(C(=O)Nc2ccccc2C(=O)N2CCCCC2)cc1 -57.4%
CCOc1ccc(OCCN(C)Cc2ccccc2)cc1 -83.1%
